# Experimental data taken from patent EP0670315A1, “Triazole oxime derivatives having antimycotic acitivity” (priority 1994, dated 1995).
# At least one compound was matched to its structure with a doubt left.
# System: Aspergillus fumigatus strain IFM41944
# Test: Treatment of infection, protocol 1: mice infected with Aspergillus fumigatus, oral treatment, survival
# Format: in vivo
# Settings: doses up to 100 mg/kg
# Experimental: Mice infected with Aspergillus fumigatus were administered selected compounds of the invention orally and their therapeutic effect was measured. Stated specifically, ICR male mice (4-wk old) in groups each consisting of 10 animals were injected with Aspergillus fumigatus strain IFM41944 by injecting it into the tail vein at a concentration of 1 × 10⁷ conidia per animal. Each test compound was administered orally to the mice one hour after the infection and for the following four continuous days on a once-a-day basis. The number of mice that survived at the 7th day of the infection was counted (the day of infection was day "zero") and the ED₅₀ of each test compound was calculated by the Litchfield-Wilcoxon method to estimate its therapeutic effect.
smiles,measurement,value
"CCC(C)n1ncn(-c2ccc(N3CCN(c4ccc(OCC5COC(Cn6cncn6)(c6ccc(Cl)cc6Cl)O5)cc4)CC3)cc2)c1=O (stereo not shown) [Itraconazole, itraconazole, reference compound]",antimycotic action in Aspergillus fumigatus infected animal models,did not show any antimycotic action
